Results are given in words; binding and its absence hold for the method and conditions named. In cells and extracts the contact can be indirect. Some entries that bind do so weakly or less than the wild type. Where a sequence is shown, tags or fusion partners need not be part of it.
Target: T1, GFP-PODXL (UniProt Q28645)
T1 sequence: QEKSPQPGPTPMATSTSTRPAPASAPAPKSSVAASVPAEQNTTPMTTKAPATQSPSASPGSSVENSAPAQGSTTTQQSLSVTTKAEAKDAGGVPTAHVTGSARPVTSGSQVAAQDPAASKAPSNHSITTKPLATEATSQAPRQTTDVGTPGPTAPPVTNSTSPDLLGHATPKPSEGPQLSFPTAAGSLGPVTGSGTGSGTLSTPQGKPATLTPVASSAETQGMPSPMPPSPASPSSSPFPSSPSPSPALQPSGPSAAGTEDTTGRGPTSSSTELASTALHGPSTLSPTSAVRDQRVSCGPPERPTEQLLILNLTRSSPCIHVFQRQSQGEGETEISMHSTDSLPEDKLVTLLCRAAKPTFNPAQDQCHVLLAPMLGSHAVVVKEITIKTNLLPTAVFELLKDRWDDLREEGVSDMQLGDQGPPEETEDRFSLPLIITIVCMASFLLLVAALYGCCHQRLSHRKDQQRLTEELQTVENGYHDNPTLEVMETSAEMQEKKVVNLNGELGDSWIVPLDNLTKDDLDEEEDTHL
Experiment: co-IP; GFP-tagged proteins were immunoprecipitated from lysates of transfected H1299 cells (p53-/- or p53R273H) with an anti-GFP antibody conjugated to magnetic beads. Partners were detected by western blotting.

Amino acid sequences for entries named in this document (tags omitted).
UniProt Q15286: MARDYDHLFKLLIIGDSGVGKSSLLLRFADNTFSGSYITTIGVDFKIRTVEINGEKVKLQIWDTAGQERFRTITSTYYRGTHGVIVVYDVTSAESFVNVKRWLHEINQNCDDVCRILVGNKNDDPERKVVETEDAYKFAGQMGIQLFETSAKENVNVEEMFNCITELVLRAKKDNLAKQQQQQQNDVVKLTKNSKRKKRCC

binding: binds
Substance: Rab35, endogenous (from UniProt Q15286 1-201)
